# Reference: the supplement of paper PMC10338343
# ± gives the standard deviation. Some of the results follow. The uncertainty is large for many entries.
# Tested on: EfPiwi piRISC loaded with L1MC piRNA (26 nt)
# Assay: pre-steady-state target cleavage rate (min^-1); guide: L1MC piRNA 5'p-UAACUAAAUACUAUGCAAGCUGUAGG; MIWI and MILI are mouse PIWI proteins and EfPiwi is from a freshwater sponge; tags in brackets are library labels; higher = faster piRNA-guided slicing of the target
# Conditions: auxiliary factor: 500 nM Ephydatia muelleri Gtsf1
# How it was run: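 A transcribed, DNA-blocked target RNA library (0.1 nM) and 1 nM active affinity-purified piRISC bearing one synthetic guide were incubated in HEPES–potassium acetate buffer at 33 °C for 0–8 or 0–960 min, either with or without 500 nM GTSF1 partner protein. Uncleaved targets were sequenced, normalised to depth and to weakly complementary targets, and pooled over three trials, with k3 capped at 0.0001 min^-1. The pre-steady-state cleavage rate was derived with a burst-and-steady-state fit.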
row,Sequence,pre-steady-state target cleavage rate
1,UCCUGGAUCUGCUUGCAAAGUAUUUAGUUA,0.0405 ± 0.011
2,UCCUGGAUCAGCUUGCAUAGUUAUUUAGUUA,0.00183 ± 0.005
3,UCCUGGUACAGCUUGCAAAGUAUUUAGUUA,0.0101 ± 0.0035
4,UCCUGGAUGUCAUUGCAUAGUAUUUAGUUA,0.00283 ± 0.0038
5,UCCUGCUAGAGCUUGCAUAGUAUUUACUUA,0.000736 ± 0.0053
6,UCCUCCUACUGCUUGCUUAGUAUUUAGUUA,0.0504 ± 0.015
7,UCCUCCUACAGCUUGGAAAGUAUUUAGUUA,0.0615 ± 0.013
8,UCCUGGAUCAGGUUGCAUAGUAUAUAGUUA,0.00644 ± 0.0033
9,UCCUGGAACAGCUUGCAUAGUAUUAAGUUA,0.00549 ± 0.0022
10,UCCUCCUACUCGUUGCAUAGUAUUUAGUUA,0.101 ± 0.025
11,UCCUGGAUGUCGUUGCAUAGUGUUUAGUUA,0.00221 ± 0.0044
12,UCCUCCUUCUGCUUGCAUAGUAUUUAGUUA,0.11 ± 0.028
13,UCCUGGUACAGCUUGCAUUGUAUUUAGUUA,0.00513 ± 0.002
14,UCCUGCUUGAGCUUGCAUAGUAUUUAGUUA,0.00861 ± 0.0024
15,UCCUCCUACAGGUUGCAUAGUUUUUAGUUA,0.00915 ± 0.0022
16,UCCUGGAUGUCCUUGCAUAGUAUUUAGUGA,0.00229 ± 0.0029
17,UCCUGGAUGUGCAUGCAUAGUAUUUAGUUA,0.00855 ± 0.0029

# Laid out differently: results already given
row	Sequence	pre-steady-state target cleavage rate
3	UCCUGGUACAGCUUGCAAAGUAUUUAGUUA	0.0101 ± 0.0035
5	UCCUGCUAGAGCUUGCAUAGUAUUUACUUA	0.000736 ± 0.0053

# Going on with the list:

row,Sequence,pre-steady-state target cleavage rate
1,UCCUGGAUCACCUUGCAUAGUAUUUAGUUA,0.018 ± 0.0063
2,UCCUGGAUGUCGAAGCAUAGUAUUUACAAA,0.000614 ± 0.0098
3,UCCUGGUACAGCUUGCAUAGUAGUUAGUUA,0.00515 ± 0.0021
4,UCCUGGAUCAGCUUGCAUCGUAUUUAGUUA,0.00918 ± 0.0028
5,UCCUGCUAGUGCUUGCAUAGUAUUUAGUUA,0.00363 ± 0.0014
6,UCCUGGAUGUGCUUGCAUAGUAUUUAGUUA [g2:g20:cont:t1A],0.015 ± 0.0046
7,UCCUCCUACAGCUUGCAUAGUAUUCAGUUA,0.0063 ± 0.0029
8,UCCUCCUACAGGUUGCAUAGUAAUUAGUUA,0.0115 ± 0.0031
9,UCCUGGUAGAGCUUGCAUAGUAAUUAGUUA,0.00406 ± 0.0024
10,UCCUCCUUCAGCUUGCAAAGUAUUUAGUUA,0.0828 ± 0.021
11,UCCUCCUACAGCAUGCAUACUAUUUAGUUA,0.00724 ± 0.0028
12,UCCUGGAUGUCGAACGUAAGGAUUUAGUUA,< 0.0001
13,UCCUGGAUCUGCUUGCAUAGUAUUUAGUAA,0.1 ± 0.038
14,UCCUGGAUGUCCUUGCAUAGUCAUUUAGUUA,0.000352 ± 0.0076
15,UCCUGCUACAGCUUGCAAGUAUUUAGUUA,0.00614 ± 0.0027
16,UCCUCCUACUCCUUGCAUAGUAUUUACAAA,0.0029 ± 0.0034

# Same assay, conditions: auxiliary factor: none (no Gtsf1)
row,Sequence,pre-steady-state target cleavage rate
1,UCCUGGAUGUCGAACGUUUGUAAUUAGUUA,< 0.0001
2,UCCUGGAUGUCGAACGUUAGUUUUUUGUUA,< 0.0001
3,UCCUGGAACAGCUUGCUUAGUAUUUUGUUA,0.000736 ± 0.013
4,UCCUCCUACAGCUAGCAUAGUUUUUAGUUA,0.000966 ± 0.0061
5,UCCUGGUACAGCUUGGAUAGUAAUUAGUUA,0.00127 ± 0.0088
6,UCCUCCUACACCUUGCAUUGUAUUUAGUUA,0.00058 ± 0.0097
7,UCCUGGAACUGCUUGCAUAGUAAUUAGUUA,0.00182 ± 0.0071
